Measured values published in PubChem BioAssay AID1347170 (National Center for Advancing Translational Sciences (NCATS), 2019).
The shares of active, inactive and inconclusive entries below differ from those in the screen. Calls follow the shape of the dose curve; as a rule, active = well fitted cell-killing curve with a large enough effect; inconclusive = small, poorly fitted or top-dose-only effect, or another doubt; inactive = flat fitted curve, though single readings scatter.

Assay: Vero cells viability counterscreen for qRT-PCR qHTS assay of selected Zika virus inhibitors
Details: CellTiter-Glo ATP luminescence, 24 h; at 41.8 µM (top of the series)
Description: Assay Submitters (PI): Avindra Nath, Ph.D., National Institute of Neurological Disorders and Stroke (NINDS), Bethesda, MD Radhakrishnan Padmanabhan, Ph.D., Georgetown University (GU), Washington D.C. Zika Virus causes congenital defects, including microcephaly and is associated with Guillain-Barre syndrome, eningoencephalitis and myelitis in infected adult. […] Using a target-based approach, we hope to establish a screening paradigm to uncover novel, cell-active NS2B-NS3 protease (Zika Virus) specific inhibitors from NCATS' collection of small molecules using qHTS. […] Four assay panel was created to identify potential Zika Virus inhibitors. Namely, (1) GU unlinked NS2B-NS3 AMC tagged protease qHTS, (2) GU unlinked NS2B-NS3 Rhodamine tagged protease qHTS, (3) NINDS linked NS2B-NS3 AMC tagged protease qHTS, (4) NINDS linked NS2B-NS3 Rhodamine tagged protease qHTS. Inhibitors of the Zika virus primary screens are confirmed using qRT-PCR secondary assays, mCherry orthogonal assay, and Vero cells viability counterscreen. […]
Vero Cell Viability Assay: Vero cell cytotoxicity was determined using a luminescent readout with CellTiter Glo reagent (Promega, Madison, WI), which is based on measuring the ATP content within cells. […] Finally, plates were incubated for 30 minutes at 37 degrees C and 5% CO2 before being read on a ViewLux (Perkin Elmer) for luminescence.

CC(C)=CCC[C@]1(C)C=Cc2c(O)c3c(c(CC=C(C)C)c2O1)O[C@]12C(=C[C@@H]4CC1C(C)(C)O[C@@]2(C/C=C(/C)C(=O)O)C4=O)C3=O
activity change, negative = cytotoxicity: inconclusive: -88%
